Experimental data reported in patent US20230405134A1, “NOVEL PROTAC CHIMERIC COMPOUND, AND PHARMACEUTICAL COMPOSITION COMPRISING SAME FOR PREVENTING, AMELIORATING, OR TREATING DISEASES THROUGH TARGET PROTEIN DEGRADATION” (POSTECH RESEARCH AND BUSINESS DEVELOPMENT FOUNDATION, priority 2020, published 2023).
Structures were worked out from names or drawings and are uncertain.

Protein sequences, listed by entry. Tags and fused reporters are not part of them.
UniProt Q15788, whole entry: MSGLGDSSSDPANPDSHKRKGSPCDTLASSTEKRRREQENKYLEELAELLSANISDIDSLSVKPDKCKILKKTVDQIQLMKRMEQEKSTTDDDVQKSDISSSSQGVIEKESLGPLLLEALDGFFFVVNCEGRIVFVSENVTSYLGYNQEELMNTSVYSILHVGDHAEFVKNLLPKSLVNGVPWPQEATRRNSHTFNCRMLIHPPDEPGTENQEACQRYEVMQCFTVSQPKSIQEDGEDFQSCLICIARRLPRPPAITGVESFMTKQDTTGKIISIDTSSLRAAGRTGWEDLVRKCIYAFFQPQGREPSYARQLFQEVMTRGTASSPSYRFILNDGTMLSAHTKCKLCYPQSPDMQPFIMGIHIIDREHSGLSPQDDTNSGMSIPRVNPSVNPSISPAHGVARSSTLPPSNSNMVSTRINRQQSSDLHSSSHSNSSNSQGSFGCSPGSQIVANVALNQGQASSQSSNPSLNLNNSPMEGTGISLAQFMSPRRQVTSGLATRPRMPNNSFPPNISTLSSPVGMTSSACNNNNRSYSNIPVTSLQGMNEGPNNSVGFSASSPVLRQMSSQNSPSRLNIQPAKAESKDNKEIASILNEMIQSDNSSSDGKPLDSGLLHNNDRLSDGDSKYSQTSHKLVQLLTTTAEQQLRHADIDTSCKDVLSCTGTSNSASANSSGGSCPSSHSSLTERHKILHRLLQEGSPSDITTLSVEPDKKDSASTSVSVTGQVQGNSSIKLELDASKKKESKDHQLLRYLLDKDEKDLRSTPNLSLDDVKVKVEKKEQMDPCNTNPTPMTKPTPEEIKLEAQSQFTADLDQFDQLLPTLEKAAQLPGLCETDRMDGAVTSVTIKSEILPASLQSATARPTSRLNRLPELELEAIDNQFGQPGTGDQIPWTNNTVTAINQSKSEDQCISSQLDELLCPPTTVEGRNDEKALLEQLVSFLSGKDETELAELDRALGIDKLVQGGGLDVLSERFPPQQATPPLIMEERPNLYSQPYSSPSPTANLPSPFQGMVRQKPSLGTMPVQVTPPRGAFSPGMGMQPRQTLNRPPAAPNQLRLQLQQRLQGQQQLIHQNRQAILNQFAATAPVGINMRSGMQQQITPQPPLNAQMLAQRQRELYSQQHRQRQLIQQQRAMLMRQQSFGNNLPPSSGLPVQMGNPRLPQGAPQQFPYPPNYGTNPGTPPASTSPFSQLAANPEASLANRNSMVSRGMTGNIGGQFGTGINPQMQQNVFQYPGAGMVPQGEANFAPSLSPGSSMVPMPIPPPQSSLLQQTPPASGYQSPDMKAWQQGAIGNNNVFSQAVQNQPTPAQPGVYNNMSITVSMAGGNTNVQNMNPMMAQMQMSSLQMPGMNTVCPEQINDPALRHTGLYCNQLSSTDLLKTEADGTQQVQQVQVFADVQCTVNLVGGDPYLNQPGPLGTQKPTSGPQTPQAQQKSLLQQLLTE

What was measured:
SRC-1 [1] = molecular target: T1, SRC-1 (Homo sapiens, UniProt Q15788); assay: SRC-1 expression level in MDA-MB-231 cells by Western blot
SRC-1 [2] = molecular target: T1, SRC-1; assay: SRC-1 expression level in Colo205 cells by Western blot; conditions: Colo205 cells expressing very low levels of CRBN, various concentrations
SRC-1 [3] = molecular target: T1, SRC-1; assay: SRC-1 expression level in A549 cells by Western blot; conditions: various concentrations

DC50 (SRC-1 [1]; read-out: DC50 for reduction of SRC-1 expression level, various concentrations): 10 µM
Effect on SRC-1 expression level (SRC-1 [2]): no effect
Activity in inducing SRC-1 degradation (SRC-1 [3]): activity similar to that of ND1-YL2
SMILES: CC(C)C[C@H](NC(=O)CCOCCOCCNc1cccc2c1C(=O)N(C1CCC(=O)NC1=O)C2=O)C(=O)N[C@@H](CC(C)C)C(=O)N1CCC[C@H]1C(=O)N1CCC[C@H]1C(=O)N[C@H](C(=O)N[C@@H](CCC(=O)O)C(=O)N[C@@H](CCC(N)=O)C(=O)N[C@@H](CC(=O)O)C(=O)N[C@@H](CC(C)C)C(=O)N[C@@]1(C)CCCC=CCCC[C@@](C)(C(=O)N[C@@H](Cc2ccc(O)cc2)C(N)=O)NC(=O)[C@H](CC2CCCCC2)NC(=O)[C@H](CC(C)C)NC(=O)[C@H](CCCCN)NC1=O)[C@@H](C)O (stereo partly shown)
SRC-1 degradation (SRC-1 [1]; various concentrations): strongest activity among the synthesized and treated compounds
